Results are given in words; binding and its absence hold for the method and conditions named. In cells and extracts the contact can be indirect. Some binding calls cover weakened binding; strength is not graded here. For some of these results: Where a sequence is shown, tags or fusion partners need not be part of it. Values belong to the substance of their own block, whether it stands above or below them.
Columns and labels:
Flag-tagged HDAC7 = target: T1, Flag-tagged HDAC7 (UniProt Q8WUI4); assay: co-IP; two tagged proteins co-transfected into 293T cells; lysis in RIPA buffer (50 mM Tris-HCl pH7.4, 150 mM NaCl, 1% NP-40); IP with anti-Myc or anti-Flag antibody and protein A/G-agarose at 4 °C overnight, Western blotting
T1 sequence: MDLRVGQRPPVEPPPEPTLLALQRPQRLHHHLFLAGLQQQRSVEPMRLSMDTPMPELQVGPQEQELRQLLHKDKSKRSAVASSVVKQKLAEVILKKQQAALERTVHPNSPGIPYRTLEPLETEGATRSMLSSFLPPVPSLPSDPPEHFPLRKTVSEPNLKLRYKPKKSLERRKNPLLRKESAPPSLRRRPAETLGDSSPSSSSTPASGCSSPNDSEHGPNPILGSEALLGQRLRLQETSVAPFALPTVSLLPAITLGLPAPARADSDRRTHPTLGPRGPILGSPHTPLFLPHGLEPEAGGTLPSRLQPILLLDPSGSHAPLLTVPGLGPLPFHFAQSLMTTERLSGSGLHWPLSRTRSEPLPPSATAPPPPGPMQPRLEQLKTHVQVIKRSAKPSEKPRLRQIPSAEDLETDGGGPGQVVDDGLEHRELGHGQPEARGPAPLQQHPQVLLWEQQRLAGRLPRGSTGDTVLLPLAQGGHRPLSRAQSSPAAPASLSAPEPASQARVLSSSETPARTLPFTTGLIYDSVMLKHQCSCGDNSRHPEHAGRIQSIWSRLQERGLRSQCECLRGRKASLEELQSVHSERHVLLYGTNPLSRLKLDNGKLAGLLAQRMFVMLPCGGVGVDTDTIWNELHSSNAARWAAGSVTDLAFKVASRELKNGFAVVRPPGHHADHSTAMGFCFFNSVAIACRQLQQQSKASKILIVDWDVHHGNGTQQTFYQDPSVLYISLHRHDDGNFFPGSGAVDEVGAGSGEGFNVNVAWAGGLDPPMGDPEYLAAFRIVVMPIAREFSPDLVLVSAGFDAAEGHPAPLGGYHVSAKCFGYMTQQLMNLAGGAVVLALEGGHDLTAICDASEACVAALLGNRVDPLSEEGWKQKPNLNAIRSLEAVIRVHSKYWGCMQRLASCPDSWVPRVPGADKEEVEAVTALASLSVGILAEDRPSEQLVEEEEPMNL

By UniProt entry, the sequences of proteins in these tests, tags left out. Where a name states a change or a piece, a line headed by the entry shows the natural chain unless it says otherwise.
UniProt Q9UKV8: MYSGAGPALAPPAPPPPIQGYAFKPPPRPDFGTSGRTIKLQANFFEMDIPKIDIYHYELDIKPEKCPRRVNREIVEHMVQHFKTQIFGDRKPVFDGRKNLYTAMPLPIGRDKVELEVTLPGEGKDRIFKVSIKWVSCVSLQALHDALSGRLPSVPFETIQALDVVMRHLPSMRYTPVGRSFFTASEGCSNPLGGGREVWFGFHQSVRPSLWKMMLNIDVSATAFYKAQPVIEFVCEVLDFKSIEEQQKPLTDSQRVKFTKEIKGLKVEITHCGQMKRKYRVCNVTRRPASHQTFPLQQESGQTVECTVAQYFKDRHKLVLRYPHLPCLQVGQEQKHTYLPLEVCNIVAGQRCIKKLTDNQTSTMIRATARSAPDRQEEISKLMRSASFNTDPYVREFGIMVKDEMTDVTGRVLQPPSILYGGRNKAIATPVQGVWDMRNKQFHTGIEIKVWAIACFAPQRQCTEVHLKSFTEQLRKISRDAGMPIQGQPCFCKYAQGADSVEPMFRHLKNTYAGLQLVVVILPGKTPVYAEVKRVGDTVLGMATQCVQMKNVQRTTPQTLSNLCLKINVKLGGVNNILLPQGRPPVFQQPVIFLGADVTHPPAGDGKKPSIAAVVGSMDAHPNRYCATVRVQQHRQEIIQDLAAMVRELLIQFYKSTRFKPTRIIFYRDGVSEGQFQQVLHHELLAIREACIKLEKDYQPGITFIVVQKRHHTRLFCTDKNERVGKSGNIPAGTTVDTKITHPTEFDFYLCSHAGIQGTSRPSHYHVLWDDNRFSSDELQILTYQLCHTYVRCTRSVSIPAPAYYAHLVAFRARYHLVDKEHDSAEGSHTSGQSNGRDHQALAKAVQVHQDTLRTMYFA
UniProt Q9UPY3: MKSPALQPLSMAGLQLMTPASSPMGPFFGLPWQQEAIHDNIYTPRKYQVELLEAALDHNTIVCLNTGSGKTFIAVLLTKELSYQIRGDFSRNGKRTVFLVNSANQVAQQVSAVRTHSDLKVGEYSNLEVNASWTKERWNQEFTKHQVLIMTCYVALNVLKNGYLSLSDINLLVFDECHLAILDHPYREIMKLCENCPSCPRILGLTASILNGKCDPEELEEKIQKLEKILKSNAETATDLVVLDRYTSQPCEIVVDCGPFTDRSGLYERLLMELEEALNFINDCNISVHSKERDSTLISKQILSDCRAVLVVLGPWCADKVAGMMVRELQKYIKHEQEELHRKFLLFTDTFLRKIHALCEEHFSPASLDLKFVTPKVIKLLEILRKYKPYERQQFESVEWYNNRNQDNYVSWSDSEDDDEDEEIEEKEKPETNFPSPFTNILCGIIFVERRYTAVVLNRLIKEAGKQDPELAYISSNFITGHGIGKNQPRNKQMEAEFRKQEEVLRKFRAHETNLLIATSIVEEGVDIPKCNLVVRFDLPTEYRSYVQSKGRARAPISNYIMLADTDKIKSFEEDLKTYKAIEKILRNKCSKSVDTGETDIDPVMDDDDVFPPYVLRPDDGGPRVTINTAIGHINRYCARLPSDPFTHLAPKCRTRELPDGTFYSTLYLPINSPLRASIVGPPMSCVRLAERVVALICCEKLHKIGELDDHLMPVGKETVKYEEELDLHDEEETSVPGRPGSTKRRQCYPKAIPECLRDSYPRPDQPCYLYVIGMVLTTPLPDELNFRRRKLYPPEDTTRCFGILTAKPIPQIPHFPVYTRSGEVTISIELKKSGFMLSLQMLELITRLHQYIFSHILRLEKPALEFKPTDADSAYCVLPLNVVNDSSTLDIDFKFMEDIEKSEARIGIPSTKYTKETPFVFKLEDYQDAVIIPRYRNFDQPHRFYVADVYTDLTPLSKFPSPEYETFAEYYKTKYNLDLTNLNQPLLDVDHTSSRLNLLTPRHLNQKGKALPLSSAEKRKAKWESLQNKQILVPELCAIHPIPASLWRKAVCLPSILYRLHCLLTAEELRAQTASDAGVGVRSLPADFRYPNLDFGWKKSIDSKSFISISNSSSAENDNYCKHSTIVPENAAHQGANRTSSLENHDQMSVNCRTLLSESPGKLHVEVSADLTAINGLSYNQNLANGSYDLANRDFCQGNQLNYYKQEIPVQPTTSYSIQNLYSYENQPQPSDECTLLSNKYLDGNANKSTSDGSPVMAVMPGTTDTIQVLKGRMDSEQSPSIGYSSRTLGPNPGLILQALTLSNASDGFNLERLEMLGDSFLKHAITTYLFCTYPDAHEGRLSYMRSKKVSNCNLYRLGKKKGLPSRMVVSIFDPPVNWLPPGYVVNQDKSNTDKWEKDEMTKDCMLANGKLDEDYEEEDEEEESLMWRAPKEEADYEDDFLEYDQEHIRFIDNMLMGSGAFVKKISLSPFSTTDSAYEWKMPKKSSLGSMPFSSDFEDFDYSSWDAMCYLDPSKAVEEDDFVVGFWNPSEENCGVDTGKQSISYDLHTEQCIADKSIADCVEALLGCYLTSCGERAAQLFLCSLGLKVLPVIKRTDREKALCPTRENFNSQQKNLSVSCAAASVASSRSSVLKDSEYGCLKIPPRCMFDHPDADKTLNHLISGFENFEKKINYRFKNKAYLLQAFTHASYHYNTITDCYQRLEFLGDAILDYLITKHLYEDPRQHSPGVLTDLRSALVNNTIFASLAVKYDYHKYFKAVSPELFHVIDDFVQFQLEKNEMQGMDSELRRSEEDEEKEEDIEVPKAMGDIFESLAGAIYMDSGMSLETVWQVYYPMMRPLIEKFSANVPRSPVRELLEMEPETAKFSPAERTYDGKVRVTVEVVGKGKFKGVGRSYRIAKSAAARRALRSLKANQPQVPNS
UniProt Q92793: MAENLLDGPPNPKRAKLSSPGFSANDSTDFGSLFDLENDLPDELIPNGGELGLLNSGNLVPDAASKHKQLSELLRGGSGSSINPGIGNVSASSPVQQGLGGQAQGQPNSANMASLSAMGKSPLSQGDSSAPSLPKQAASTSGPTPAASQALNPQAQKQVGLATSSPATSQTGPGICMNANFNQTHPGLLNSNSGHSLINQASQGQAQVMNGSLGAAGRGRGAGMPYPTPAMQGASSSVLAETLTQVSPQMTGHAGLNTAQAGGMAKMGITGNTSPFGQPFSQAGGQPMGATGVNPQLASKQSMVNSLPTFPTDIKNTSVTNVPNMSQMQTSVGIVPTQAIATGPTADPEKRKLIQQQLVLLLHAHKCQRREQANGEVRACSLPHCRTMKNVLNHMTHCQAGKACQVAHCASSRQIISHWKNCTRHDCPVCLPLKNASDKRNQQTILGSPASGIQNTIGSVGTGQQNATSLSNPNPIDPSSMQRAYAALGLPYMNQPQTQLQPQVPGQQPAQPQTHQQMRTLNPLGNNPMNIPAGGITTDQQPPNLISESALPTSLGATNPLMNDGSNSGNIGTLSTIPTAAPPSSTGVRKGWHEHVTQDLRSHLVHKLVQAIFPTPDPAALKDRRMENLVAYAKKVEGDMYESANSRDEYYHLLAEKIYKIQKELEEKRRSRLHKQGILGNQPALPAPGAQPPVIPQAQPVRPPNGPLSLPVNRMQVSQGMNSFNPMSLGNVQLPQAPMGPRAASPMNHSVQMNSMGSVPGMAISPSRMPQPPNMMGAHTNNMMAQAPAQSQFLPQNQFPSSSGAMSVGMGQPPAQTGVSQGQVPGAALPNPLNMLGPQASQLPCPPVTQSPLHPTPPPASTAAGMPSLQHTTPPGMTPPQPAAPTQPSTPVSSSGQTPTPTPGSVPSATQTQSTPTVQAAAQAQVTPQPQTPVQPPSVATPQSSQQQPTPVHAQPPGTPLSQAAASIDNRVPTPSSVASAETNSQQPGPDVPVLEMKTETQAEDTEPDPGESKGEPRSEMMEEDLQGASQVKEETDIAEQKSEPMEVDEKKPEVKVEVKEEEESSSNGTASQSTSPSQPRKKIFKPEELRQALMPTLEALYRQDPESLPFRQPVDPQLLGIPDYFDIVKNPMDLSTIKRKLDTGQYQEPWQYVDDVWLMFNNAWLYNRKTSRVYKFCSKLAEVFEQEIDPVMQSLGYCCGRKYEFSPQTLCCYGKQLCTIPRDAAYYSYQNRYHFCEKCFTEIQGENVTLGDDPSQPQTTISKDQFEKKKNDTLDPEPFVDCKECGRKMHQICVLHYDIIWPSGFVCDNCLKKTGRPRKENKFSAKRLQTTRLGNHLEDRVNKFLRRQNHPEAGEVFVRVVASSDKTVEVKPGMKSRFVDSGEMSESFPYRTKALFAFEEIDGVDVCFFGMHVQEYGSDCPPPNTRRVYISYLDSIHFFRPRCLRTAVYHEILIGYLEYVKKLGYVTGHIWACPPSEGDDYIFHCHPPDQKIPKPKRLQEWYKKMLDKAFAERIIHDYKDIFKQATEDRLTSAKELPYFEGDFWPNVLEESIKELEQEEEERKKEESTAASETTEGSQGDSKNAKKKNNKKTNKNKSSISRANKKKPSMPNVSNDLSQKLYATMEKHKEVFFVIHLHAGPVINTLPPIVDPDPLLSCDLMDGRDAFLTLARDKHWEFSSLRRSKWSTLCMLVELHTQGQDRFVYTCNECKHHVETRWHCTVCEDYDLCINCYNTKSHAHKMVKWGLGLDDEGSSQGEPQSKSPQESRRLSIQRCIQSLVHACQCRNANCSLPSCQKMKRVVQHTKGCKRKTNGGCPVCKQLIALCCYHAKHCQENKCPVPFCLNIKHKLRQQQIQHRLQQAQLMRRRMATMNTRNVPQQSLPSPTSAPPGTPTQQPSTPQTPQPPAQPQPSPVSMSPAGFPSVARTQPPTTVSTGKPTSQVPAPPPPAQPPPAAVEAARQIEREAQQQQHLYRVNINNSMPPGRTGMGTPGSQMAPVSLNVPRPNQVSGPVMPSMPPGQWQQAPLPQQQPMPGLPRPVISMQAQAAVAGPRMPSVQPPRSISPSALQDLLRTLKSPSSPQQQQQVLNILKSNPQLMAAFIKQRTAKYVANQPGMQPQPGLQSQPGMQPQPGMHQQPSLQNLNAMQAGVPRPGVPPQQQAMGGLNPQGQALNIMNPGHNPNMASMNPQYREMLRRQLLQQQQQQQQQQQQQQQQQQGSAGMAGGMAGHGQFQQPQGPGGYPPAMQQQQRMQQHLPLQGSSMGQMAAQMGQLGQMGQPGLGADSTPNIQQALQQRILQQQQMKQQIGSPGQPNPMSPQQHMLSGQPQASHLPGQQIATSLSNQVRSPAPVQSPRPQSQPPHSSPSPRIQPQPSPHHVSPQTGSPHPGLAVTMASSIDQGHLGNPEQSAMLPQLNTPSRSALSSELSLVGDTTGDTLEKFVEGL

[1] = target: Myc-tagged AGO2 (Argonaute2), wild type (UniProt Q9UKV8); assay: as above
[2] = target: Myc-tagged AGO2-3KR (K355R, K493R, K720R) (UniProt Q9UKV8); assay: co-IP; Myc-AGO2-WT or mutants transfected individually into 293T cells; IP with Myc antibody, endogenous DICER immunoblotted with DICER antibody (Figure S6)
Myc-tagged AGO2 K493R = Myc-tagged AGO2 K493R (UniProt Q9UKV8); assay: as above
Myc-tagged AGO2 K720R = Myc-tagged AGO2 K720R (UniProt Q9UKV8); assay: as above
[3] = target: Myc-tagged AGO2 (Argonaute2), wild type (UniProt Q9UKV8); assay: as above
Myc-tagged AGO2 K355R = Myc-tagged AGO2 K355R (UniProt Q9UKV8); assay: as above
[4] = target: T2, endogenous HDAC7 (human (endogenous in 293T)) (UniProt Q8WUI4); assay: co-IP; endogenous proteins of 293T lysate; IP with anti-AGO2 or anti-HDAC7 antibody, normal IgG as negative control, Western blotting
T2 sequence: T1 sequence

[5] = target: endogenous AGO2 (human (endogenous in 293T)) (UniProt Q9UKV8); assay: co-IP; ectopically expressed HA-P300 with endogenous AGO2 (Figure S2B); RIPA buffer lysate; precipitating antibody not given

binding (Flag-tagged HDAC7): binds
Substance: Myc-tagged AGO2 (Argonaute2), wild type (from UniProt Q9UKV8 1-859)

binding [2]: binds | binding (Myc-tagged AGO2 K493R): binds | binding (Myc-tagged AGO2 K720R): binds | binding [3]: binds | binding (Myc-tagged AGO2 K355R): binds
Substance: endogenous DICER (from UniProt Q9UPY3 1-1922) (enzyme)

binding [4]: binds
Substance: endogenous AGO2 (from UniProt Q9UKV8 1-859)

More lines, now with the values behind:

Substance: HA-tagged CBP (cAMP response element-binding protein binding protein, printed as 'a cAMP response element-binding protein') (from UniProt Q92793 1-2442) (enzyme)
binding [1]: binds

Substance: HA-tagged P300 (E1A-binding protein) (from UniProt Q09472 1-2414) (enzyme)
binding [5]: binds | binding [1]: binds
